According to paper PMC12333249:
These are yes or no findings as the source states them, for the method shown. In cells and extracts the contact can be indirect. Some results given as binding are weak or reduced against the parent protein; the word gives no strength. For some assays here: Tags and fused reporters may be left off the sequences shown.

Chains of the proteins cited; added tags and fusions are not shown. Lines headed by an entry give the natural chain unless they say otherwise; changes in a name come on top. Residues count along the entry.
UniProt Q7KZF4: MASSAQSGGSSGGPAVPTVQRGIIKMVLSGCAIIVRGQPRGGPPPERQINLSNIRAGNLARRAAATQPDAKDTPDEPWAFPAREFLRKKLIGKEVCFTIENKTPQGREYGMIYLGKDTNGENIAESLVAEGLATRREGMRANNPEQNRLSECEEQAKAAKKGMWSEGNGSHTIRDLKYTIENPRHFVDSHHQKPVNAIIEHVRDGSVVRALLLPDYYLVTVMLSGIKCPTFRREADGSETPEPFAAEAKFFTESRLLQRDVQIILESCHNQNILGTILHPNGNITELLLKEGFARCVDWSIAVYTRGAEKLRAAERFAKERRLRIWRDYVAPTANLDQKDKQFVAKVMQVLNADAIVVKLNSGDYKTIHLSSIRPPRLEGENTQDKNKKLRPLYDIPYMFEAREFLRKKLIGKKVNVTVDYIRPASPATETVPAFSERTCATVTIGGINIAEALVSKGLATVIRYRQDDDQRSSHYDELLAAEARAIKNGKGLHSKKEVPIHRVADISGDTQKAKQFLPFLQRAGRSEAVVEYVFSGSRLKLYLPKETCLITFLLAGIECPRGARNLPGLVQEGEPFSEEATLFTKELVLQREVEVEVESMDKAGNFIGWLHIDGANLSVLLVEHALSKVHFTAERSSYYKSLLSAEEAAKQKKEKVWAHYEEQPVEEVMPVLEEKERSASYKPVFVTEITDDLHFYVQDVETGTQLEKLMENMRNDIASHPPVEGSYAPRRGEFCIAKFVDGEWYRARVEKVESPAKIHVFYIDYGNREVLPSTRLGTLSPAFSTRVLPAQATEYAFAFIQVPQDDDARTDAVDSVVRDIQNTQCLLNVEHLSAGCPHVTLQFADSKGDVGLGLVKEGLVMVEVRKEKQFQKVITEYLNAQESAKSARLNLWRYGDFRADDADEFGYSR
truncated SND1 (16–339): residues 16-339 of Q7KZF4

Columns and labels:
[1] = target: Staphylococcal nuclease and Tudor domain containing 1 (SND1) (human (endogenous in PCa cell lines; DU-145 and PC-3 are the lines used)) (UniProt Q7KZF4); assay: co-IP; endogenous proteins; beads with 2 µg SND1 or MTDH antibody, cell lysate supernatant, overnight at 4 ℃, three washes, Western blotting with 10% input
truncated SND1 (16–339) = truncated SND1 (16–339) (UniProt Q7KZF4); assay: co-IP; plasmids of FLAG-tagged SND1 (full length, truncated 16–339, 340–910) and HA-tagged truncated MTDH (364–582); bait not given

Row | Binder | binding [1] | binding (truncated SND1 (16–339))
1 | metadherin (MTDH) (protein, UniProt Q86UE4 1-582) MAARSWQDELAQQAEEGSARLREMLSVGLGFLRTELGLDLGLEPKRYPGWVILVGTGALGLLLLFLLGYGWAAACAGARKKRRSPPRKREEAAAVPAAAPDDLALLKNLRSEEQKKKNRKKLSEKPKPNGRTVEVAEGEAVRTPQSVTAKQPPEIDKKNEKSKKNKKKSKSDAKAVQNSSRHDGKEVDEGAWETKISHREKRQQRKRDKVLTDSGSLDSTIPGIENTITVTTEQLTTASFPVGSKKNKGDSHLNVQVSNFKSGKGDSTLQVSSGLNENLTVNGGGWNEKSVKLSSQISAGEEKWNSVSPASAGKRKTEPSAWSQDTGDANTNGKDWGRSWSDRSIFSGIGSTAEPVSQSTTSDYQWDVSRNQPYIDDEWSGLNGLSSADPNSDWNAPAEEWGNWVDEERASLLKSQEPIPDDQKVSDDDKEKGEGALPTGKSKKKKKKKKKQGEDNSTAQDTEELEKEIREDLPVNTSKTRPKQEKAFSLKTISTSDPAEVLVKNSQPIKTLPPATSTEPSVILSKSDSDKSSSQVPPILQETDKSKSNTKQNSVPPSQTKSETSWESPKQIKKKKKARRET | binds | –
2 | truncated MTDH (364–582) carrying an HA tag (domain or fragment, UniProt Q86UE4 364-582) YQWDVSRNQPYIDDEWSGLNGLSSADPNSDWNAPAEEWGNWVDEERASLLKSQEPIPDDQKVSDDDKEKGEGALPTGKSKKKKKKKKKQGEDNSTAQDTEELEKEIREDLPVNTSKTRPKQEKAFSLKTISTSDPAEVLVKNSQPIKTLPPATSTEPSVILSKSDSDKSSSQVPPILQETDKSKSNTKQNSVPPSQTKSETSWESPKQIKKKKKARRET | – | binds
